# Assay results: the supplement of paper PMC8728848
# The list shows a part of the results.
# B1: HopZSSI-T (Helicobacter pylori), B5Z6D0 (protein)
# chain: MGSSHHHHHHSSGLVPRGSHMENLYFQGEDNGFFISAGYQIGEAAQMVKNTGELKKLSDTYENLSNLLTNFNNLNQAVTNASSPSEINAAIDNLKANTQGLTGEKTNSPAYQAVYLALNAAVGLWNVIAYNVQCGPGNSSQQSVTFEGQPGHNSSSINCNLTGYNNGVSGPLSIDNFKQLNQAYQVLQQALKQGVPVLNNTNQKIEVKVTTQTNGQSSKETTTTTTTNDAQTLLQEASKMIDVLTTNCPWVNHNPGQNGGAPWGLIRQECVSGFATEFSAVTSMIKNAQEIVTQAQSLNANQNNQNAPQDFNPYTSADRAFAQNMLNHAQAQAKILELADQMKKDLNTIPSQFITNYLAACRIDGTTPSQGVTNNTWGAGCAYVEETITALNNSLAHFGTQAEQIKQSELLARTILDFRGSLSTLNSTYNSITTTASNTPNSPFLKNLISQSTNPNNPGGLQAVYQVNQSAYSQLLSATQELGHNPFRRIGLISSQT
# Key:
# Assay in all cases: glycan array binding signal (z-score within array); higher = stronger binding
# Conditions in all cases: glycan notation: IUPAC condensed, linker removed
# [1] = target: Fuc(a1-2)[GalNAc(a1-3)]Gal(b1-3)GlcNAc(b1-6)GalNAc
# Summary of the method: (§1)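 Glycan array data were curated from 3228 arrays in the Consortium for Functional Glycomics database and kept only where the protein sequence was available. Glycan names were converted to IUPAC-condensed notation, and columns mapping to the same glycan were averaged. The binding signal is a within-array Z-score, averaged across arrays of the same protein sequence at different concentrations or buffers and across linkers. Negative Z-scores can be read as non-binding.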
# [2] = target: Fuc(a1-2)[GalNAc(a1-3)]Gal(b1-4)Glc
# Summary of the method: as §1
# [3] = target: Fuc(a1-2)[GalNAc(a1-3)]Gal(b1-4)GlcNAc
# Summary of the method: as §1
# [4] = target: Fuc(a1-2)[GalNAc(a1-3)]Gal(b1-4)GlcNAc(b1-2)Man
# Summary of the method: as §1
# [5] = target: Fuc(a1-2)[GalNAc(a1-3)]Gal(b1-4)GlcNAc(b1-2)Man(a1-3)[Fuc(a1-2)[GalNAc(a1-3)]Gal(b1-4)GlcNAc(b1-2)Man(a1-6)]Man(b1-4)GlcNAc(b1-4)GlcNAc
# Summary of the method: as §1
# [6] = target: Fuc(a1-2)[GalNAc(a1-3)]Gal(b1-4)GlcNAc(b1-2)Man(a1-3)[Fuc(a1-2)[GalNAc(a1-3)]Gal(b1-4)GlcNAc(b1-2)Man(a1-6)]Man(b1-4)GlcNAc(b1-4)[Fuc(a1-6)]GlcNAc
# Summary of the method: as §1
# [7] = target: Fuc(a1-2)[GalNAc(a1-3)]Gal(b1-4)GlcNAc(b1-3)Gal(b1-4)GlcNAc
# Summary of the method: as §1
# [8] = target: Fuc(a1-2)[GalNAc(a1-3)]Gal(b1-4)GlcNAc(b1-3)Gal(b1-4)GlcNAc(b1-3)Gal(b1-4)GlcNAc
# Summary of the method: as §1
# [9] = target: Fuc(a1-2)[GalNAc(a1-3)]Gal(b1-4)GlcNAc(b1-3)GalNAc
# Summary of the method: as §1
# [10] = target: Fuc(a1-2)[GalNAc(a1-3)]Gal(b1-4)GlcNAc(b1-3)[Fuc(a1-2)[GalNAc(a1-3)]Gal(b1-4)GlcNAc(b1-6)]GalNAc
# Summary of the method: as §1
# [11] = target: Fuc(a1-2)[GalNAc(a1-3)]Gal(b1-4)GlcNAc(b1-6)GalNAc
# Summary of the method: as §1
# [12] = target: Fuc(a1-2)[GalNAc(a1-3)]Gal(b1-4)[Fuc(a1-3)]GlcNAc
# Summary of the method: as §1
# [13] = target: Fuc(a1-2)[GalNAc(a1-3)]Gal(b1-4)[Fuc(a1-3)]GlcNAc(b1-3)GalNAc
# Summary of the method: as §1
# [14] = target: Fuc(a1-2)[GalNAc(a1-4)]Gal(b1-4)GlcNAc
# Summary of the method: as §1
# [15] = target: Fuc(a1-2)[GalNAc(b1-3)]Gal
# Summary of the method: as §1
# Fuc(a1-3)GlcNAc = target: Fuc(a1-3)GlcNAc
# Summary of the method: as §1
# [16] = target: Fuc(a1-3)[Gal(b1-4)]Glc6S
# Summary of the method: as §1
# [17] = target: Fuc(a1-3)[Gal(b1-4)]GlcNAc
# Summary of the method: as §1
# [18] = target: Fuc(a1-3)[Gal(b1-4)]GlcNAc(b1-2)Man
# Summary of the method: as §1
# [19] = target: Fuc(a1-3)[Gal(b1-4)]GlcNAc(b1-2)Man(a1-3)[Fuc(a1-3)[Gal(b1-4)]GlcNAc(b1-2)Man(a1-6)]Man(b1-4)GlcNAc(b1-4)GlcNAc
# Summary of the method: as §1
# [20] = target: Fuc(a1-3)[Gal(b1-4)]GlcNAc(b1-2)Man(a1-3)[Fuc(a1-3)[Gal(b1-4)]GlcNAc(b1-2)Man(a1-6)]Man(b1-4)GlcNAc(b1-4)[Fuc(a1-6)]GlcNAc
# Summary of the method: as §1
# [21] = target: Fuc(a1-3)[Gal(b1-4)]GlcNAc(b1-3)Gal(b1-3)[Fuc(a1-4)]GlcNAc
# Summary of the method: as §1
# [22] = target: Fuc(a1-3)[Gal(b1-4)]GlcNAc(b1-3)GalNAc
# Summary of the method: as §1
# [23] = target: Fuc(a1-3)[Gal(b1-4)]GlcNAc(b1-4)Gal(b1-4)[Fuc(a1-3)]GlcNAc
# Summary of the method: as §1
# [24] = target: Fuc(a1-3)[Gal(b1-4)]GlcNAc(b1-4)Gal(b1-4)[Fuc(a1-3)]GlcNAc(b1-4)Gal(b1-4)[Fuc(a1-3)]GlcNAc
# Summary of the method: as §1
# [25] = target: Fuc(a1-3)[Gal(b1-4)]GlcNAc(b1-6)GalNAc
# Summary of the method: as §1
# [26] = target: Fuc(a1-3)[Gal(b1-4)]GlcNAc(b1-6)[Gal(b1-3)GlcNAc(b1-3)]Gal(b1-4)Glc
# Summary of the method: as §1
# [27] = target: Fuc(a1-3)[Gal(b1-4)]GlcNAc6S
# Summary of the method: as §1
# [28] = target: Fuc(a1-3)[Gal3S(b1-4)]Glc
# Summary of the method: as §1
# [29] = target: Fuc(a1-3)[Gal3S(b1-4)]GlcNAc
# Summary of the method: as §1
# [30] = target: Fuc(a1-3)[Gal3S(b1-4)]GlcNAc6S
# Summary of the method: as §1
# [31] = target: Fuc(a1-3)[GalNAc(b1-4)]GlcNAc
# Summary of the method: as §1
# [32] = target: Fuc(a1-3)[GalNAc(b1-4)]GlcNAc6S
# Summary of the method: as §1
# Fuc(a1-4)GlcNAc = target: Fuc(a1-4)GlcNAc
# Summary of the method: as §1
# Fuc(b1-3)GlcNAc = target: Fuc(b1-3)GlcNAc
# Summary of the method: as §1
# Gal(a1-2)Gal = target: Gal(a1-2)Gal
# Summary of the method: as §1
# Gal(a1-3)Gal = target: Gal(a1-3)Gal
# Summary of the method: as §1
# Gal(a1-3)Gal(b1-3)GlcNAc = target: Gal(a1-3)Gal(b1-3)GlcNAc
# Summary of the method: as §1
# [33] = target: Gal(a1-3)Gal(b1-3)GlcNAc(b1-2)Man
# Summary of the method: as §1
# [34] = target: Gal(a1-3)Gal(b1-3)GlcNAc(b1-2)Man(a1-3)[Gal(a1-3)Gal(b1-3)GlcNAc(b1-2)Man(a1-6)]Man(b1-4)GlcNAc(b1-4)GlcNAc
# Summary of the method: as §1
# [35] = target: Gal(a1-3)Gal(b1-3)GlcNAc(b1-3)GalNAc
# Summary of the method: as §1
# [36] = target: Gal(a1-3)Gal(b1-3)GlcNAc(b1-6)GalNAc
# Summary of the method: as §1
# [37] = target: Gal(a1-3)Gal(b1-3)[Fuc(a1-4)]GlcNAc(b1-2)Man(a1-3)[Gal(a1-3)Gal(b1-3)[Fuc(a1-4)]GlcNAc(b1-2)Man(a1-6)]Man(b1-4)GlcNAc(b1-4)GlcNAc
# Summary of the method: as §1
# Gal(a1-3)Gal(b1-4)Glc = target: Gal(a1-3)Gal(b1-4)Glc
# Summary of the method: as §1
# Gal(a1-3)Gal(b1-4)GlcNAc = target: Gal(a1-3)Gal(b1-4)GlcNAc
# Summary of the method: as §1
binder,measurement,setting,value
B1,glycan array binding signal (z-score),[1],-0.913
same,glycan array binding signal (z-score),[2],-0.824
same,glycan array binding signal (z-score),[3],-0.282
same,glycan array binding signal (z-score),[4],-0.475
same,glycan array binding signal (z-score),[5],-0.544
same,glycan array binding signal (z-score),[6],0.494
same,glycan array binding signal (z-score),[7],-0.116
same,glycan array binding signal (z-score),[8],0.205
same,glycan array binding signal (z-score),[9],1
same,glycan array binding signal (z-score),[10],0.499
same,glycan array binding signal (z-score),[11],-0.464
same,glycan array binding signal (z-score),[12],-0.057
same,glycan array binding signal (z-score),[13],0.538
same,glycan array binding signal (z-score),[14],-0.372
same,glycan array binding signal (z-score),[15],-0.815
same,glycan array binding signal (z-score),Fuc(a1-3)GlcNAc,0.003
same,glycan array binding signal (z-score),[16],0.491
same,glycan array binding signal (z-score),[17],-0.439
same,glycan array binding signal (z-score),[18],-0.196
same,glycan array binding signal (z-score),[19],-0.248
same,glycan array binding signal (z-score),[20],-0.378
same,glycan array binding signal (z-score),[21],-0.274
same,glycan array binding signal (z-score),[22],0.356
same,glycan array binding signal (z-score),[23],-0.536
same,glycan array binding signal (z-score),[24],-0.481
same,glycan array binding signal (z-score),[25],-0.281
same,glycan array binding signal (z-score),[26],0.695
same,glycan array binding signal (z-score),[27],0.325
same,glycan array binding signal (z-score),[28],-0.004
same,glycan array binding signal (z-score),[29],-0.516
same,glycan array binding signal (z-score),[30],-0.323
same,glycan array binding signal (z-score),[31],0.22
same,glycan array binding signal (z-score),[32],-0.687
same,glycan array binding signal (z-score),Fuc(a1-4)GlcNAc,-0.633
same,glycan array binding signal (z-score),Fuc(b1-3)GlcNAc,-0.276
same,glycan array binding signal (z-score),Gal(a1-2)Gal,1.3
same,glycan array binding signal (z-score),Gal(a1-3)Gal,0.3
same,glycan array binding signal (z-score),Gal(a1-3)Gal(b1-3)GlcNAc,-0.08
same,glycan array binding signal (z-score),[33],-0.282
same,glycan array binding signal (z-score),[34],-0.389
same,glycan array binding signal (z-score),[35],-0.82
same,glycan array binding signal (z-score),[36],0.157
same,glycan array binding signal (z-score),[37],0.896
same,glycan array binding signal (z-score),Gal(a1-3)Gal(b1-4)Glc,0.533
same,glycan array binding signal (z-score),Gal(a1-3)Gal(b1-4)GlcNAc,-0.403

# In a second layout: entries from further up
binder	measurement	setting	value
B1	glycan array binding signal (z-score)	[15]	-0.815
same	glycan array binding signal (z-score)	[28]	-0.004
